The supplement of paper PMC10849652
This is one part of the list.

Amino acid sequences for entries named in this document (tags omitted). A change or cut given only in a name is not applied to a line headed by its entry.
UniProt Q6P444: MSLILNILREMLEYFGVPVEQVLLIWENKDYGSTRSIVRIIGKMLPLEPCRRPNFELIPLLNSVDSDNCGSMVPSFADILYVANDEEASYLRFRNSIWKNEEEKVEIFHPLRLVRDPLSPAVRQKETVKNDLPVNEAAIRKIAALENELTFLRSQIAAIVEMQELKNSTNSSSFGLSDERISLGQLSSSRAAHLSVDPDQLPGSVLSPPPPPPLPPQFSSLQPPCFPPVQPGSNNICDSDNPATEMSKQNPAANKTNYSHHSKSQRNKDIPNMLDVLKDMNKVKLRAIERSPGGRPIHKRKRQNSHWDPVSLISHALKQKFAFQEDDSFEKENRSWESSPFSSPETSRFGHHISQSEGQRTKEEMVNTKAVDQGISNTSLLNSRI
UniProt P00156: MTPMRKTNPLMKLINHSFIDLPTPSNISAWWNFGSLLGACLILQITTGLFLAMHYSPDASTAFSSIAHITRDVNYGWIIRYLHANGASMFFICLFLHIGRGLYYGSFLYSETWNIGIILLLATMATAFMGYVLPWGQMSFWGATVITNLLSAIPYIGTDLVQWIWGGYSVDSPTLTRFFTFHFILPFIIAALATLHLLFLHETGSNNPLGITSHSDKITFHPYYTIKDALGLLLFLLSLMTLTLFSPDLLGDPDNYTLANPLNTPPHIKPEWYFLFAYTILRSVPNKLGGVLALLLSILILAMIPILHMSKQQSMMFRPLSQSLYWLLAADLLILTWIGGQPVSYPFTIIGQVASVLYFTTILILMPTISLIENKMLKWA
UniProt Q15800: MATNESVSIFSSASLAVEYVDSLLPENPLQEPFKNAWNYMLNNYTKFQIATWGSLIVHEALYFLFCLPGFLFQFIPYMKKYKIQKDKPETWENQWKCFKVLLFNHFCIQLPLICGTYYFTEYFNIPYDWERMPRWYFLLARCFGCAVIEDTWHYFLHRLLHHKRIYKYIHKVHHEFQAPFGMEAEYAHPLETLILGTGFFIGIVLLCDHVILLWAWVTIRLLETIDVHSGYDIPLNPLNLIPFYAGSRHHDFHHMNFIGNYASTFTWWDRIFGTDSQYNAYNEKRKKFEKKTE
UniProt P46199: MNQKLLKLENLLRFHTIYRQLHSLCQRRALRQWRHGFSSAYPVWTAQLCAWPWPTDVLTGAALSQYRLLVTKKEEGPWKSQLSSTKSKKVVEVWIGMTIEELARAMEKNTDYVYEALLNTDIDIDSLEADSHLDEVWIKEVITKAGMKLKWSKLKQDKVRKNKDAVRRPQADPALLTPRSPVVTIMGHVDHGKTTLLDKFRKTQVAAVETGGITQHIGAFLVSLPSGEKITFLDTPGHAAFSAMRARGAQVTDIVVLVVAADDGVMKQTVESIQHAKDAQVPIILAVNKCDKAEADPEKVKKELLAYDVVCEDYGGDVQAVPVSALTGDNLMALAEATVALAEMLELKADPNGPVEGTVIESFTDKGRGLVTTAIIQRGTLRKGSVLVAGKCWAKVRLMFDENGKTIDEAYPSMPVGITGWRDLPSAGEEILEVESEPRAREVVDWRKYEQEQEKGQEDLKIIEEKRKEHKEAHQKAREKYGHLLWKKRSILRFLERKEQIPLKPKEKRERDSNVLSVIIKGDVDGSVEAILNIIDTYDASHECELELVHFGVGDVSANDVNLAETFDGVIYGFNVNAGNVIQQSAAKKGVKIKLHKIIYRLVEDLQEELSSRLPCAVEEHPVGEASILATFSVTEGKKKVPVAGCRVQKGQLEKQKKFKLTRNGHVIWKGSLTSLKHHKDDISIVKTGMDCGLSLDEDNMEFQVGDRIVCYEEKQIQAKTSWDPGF

What was measured:
Experiment in all cases: log2 fold change, soluble protein after heating vs DMSO (PISA); higher = thermal stabilisation; K562 lysate, 10 uM; active = over 0.2 and 3.5 SD of the protein, either way, in both replicates (recomputed)
[1] = compound: C=CC(=O)N1CCC[C@@H](n2nc(-c3ccc(Oc4ccccc4)cc3)c3c(N)ncnc32)C1 [ibrutinib]
Method in brief: (§1)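 Following dounce homogenisation of K562 pellets in PBS pH 7.4 with 1 mM MgCl2, crude extract at 1 mg/mL protein was incubated for 30 min with 10 μM compound. Aliquots were then heated for 3 min over 48°C-58°C and pooled, NP-40 was added to 0.5% at 4°C, and soluble protein was recovered as the supernatant at 21,000xg for 90 min. Channel-sum-equalised TMTpro 16plex LC-MS/MS quantified this protein. Each value, from duplicates, is a log-two fold change in thermal stability relative to solvent controls.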

[2] = compound: CC(=O)c1cnc2ccc(-c3cc(Cl)c(O)c(Cl)c3)nc2c1N[C@H]1CC[C@H](CN(C)C)CC1
Method in brief: as §1

[3] = compound: CC(C)(C)Cn1c(N)nc2ccc(-c3[nH]c(C(C)(C)C)nc3-c3ccc(F)cc3)nc21 [ralimetinib]
Method in brief: as §1

[4] = compound: CC(C)(O)CC(=O)NCCn1ccc2ncnc(Nc3ccc(Oc4cccc(C(F)(F)F)c4)c(Cl)c3)c21
Method in brief: as §1

[5] = compound: CC(C)C1=C2N=C(C=C(N2N=C1)NCC3=CC=CC=C3)NCCCCCCN
Method in brief: as §1

[6] = compound: CC1=C(C(CC(=O)N1)C2=CC=C(C=C2)C(F)(F)F)C(=O)NC3=C(C=C4C(=C3)C=NN4)F
Method in brief: as §1

[7] = compound: CC1=C(C2=C(C=C1)C(=O)C3=CC=CC=C3N2CCCN)C
Method in brief: as §1

[8] = compound: CC1=C(C=C(C=C1)NC(=O)C2=CC(=CC=C2)C(C)(C)C#N)NC3=CC4=C(C=C3)N=CN(C4=O)C
Method in brief: as §1

[9] = compound: CC1=C(C=C(C=C1)NC(=O)C2=CC(=CC=C2)N(C)C)NC(=O)C3=CC=C(C=C3)O
Method in brief: as §1

[10] = compound: CC1=CC=C(C=C1)SC2=C3C=C(SC3=CN=C2)C(=O)N
Method in brief: as §1

[11] = compound: CCCS(=O)(=O)Nc1ccc(F)c(C(=O)c2c[nH]c3ncc(-c4ccc(Cl)cc4)cc23)c1F [vemurafenib]
Method in brief: as §1

[12] = compound: CCCS(=O)(=O)Nc1ccc(F)c(C(=O)c2c[nH]c3ncc(Cl)cc23)c1F
Method in brief: as §1

[13] = compound: CCN(CCCOc1ccc2c(Nc3cc(CC(=O)Nc4cccc(F)c4)[nH]n3)ncnc2c1)CCOP(=O)(O)O [barasertib]
Method in brief: as §1

[14] = compound: CC[C@@H]1C(=O)N(C)c2cnc(Nc3ccc(C(=O)NC4CCN(C)CC4)cc3OC)nc2N1C1CCCC1
Method in brief: as §1

[15] = compound: CC[C@@H]1C(=O)N(C)c2cnc(Nc3ccc(C(=O)N[C@H]4CC[C@H](N5CCN(CC6CC6)CC5)CC4)cc3OC)nc2N1C(C)C [volasertib]
Method in brief: as §1

[16] = compound: CCn1c(C(=O)N(C2CC2)C2CC2)cc2c3c(ncn3C)c(Nc3cc(C)n(C)n3)nc21
Method in brief: as §1

[17] = compound: CCn1cc(-c2ccnc3[nH]c(-c4cccc(CN(C)C)c4)cc23)c(-c2ccc(NC(=O)N(C)C)cc2)n1
Method in brief: as §1

[18] = compound: CN1CCC(CNc2ccc3ncc(-c4cccc(OC(F)(F)F)c4)n3n2)CC1
Method in brief: as §1

[19] = compound: CN1CCN(CCOc2cc(OC3CCOCC3)c3c(Nc4c(Cl)ccc5c4OCO5)ncnc3c2)CC1 [saracatinib]
Method in brief: as §1

[20] = compound: CN1CCN(c2nc(C3=C(c4c[nH]c5ccccc45)C(=O)NC3=O)c3ccccc3n2)CC1 [sotrastaurin]
Method in brief: as §1

Measured: log2 fold change

MTFR2 (UniProt Q6P444)
inactive: [1] 0.022 | [2] 0.1 | [3] 0.041 | [4] -0.086 | [5] 0.002 | [6] 0.013 | [7] 0.031 | [8] -0.007 | [9] 0.019 | [10] 0.109 | [11] 0.079 | [12] 0.116 | [13] 0.051 | [14] 0.003 | [15] -0.024 | [16] 0.039 | [17] 0.044 | [18] -0.264 | [19] 0.1 | [20] 0.03

MRPL39 isoform 2 (UniProt Q9NYK5)
inactive: [1] 0.003 | [2] -0.007 | [3] 0 | [4] -0.053 | [5] -0.007 | [6] 0.006 | [7] -0.021 | [8] 0.015 | [9] 0.02 | [10] -0.054 | [11] 0.042 | [12] -0.016 | [13] 0.021 | [14] 0.048 | [15] -0.041 | [16] -0.014 | [17] 0.167 | [18] -0.061 | [19] -0.025 | [20] 0.056

MT-CYB (UniProt P00156)
active: [17] -0.993 | [18] 0.521
inactive: [1] 0.133 | [2] -0.055 | [3] 0.001 | [4] -0.064 | [5] -0.094 | [6] 0.03 | [7] -0.107 | [8] 0.039 | [9] -0.093 | [10] 0.198 | [11] 0.004 | [12] -0.03 | [13] -0.054 | [14] 0 | [15] 0.056 | [16] -0.097 | [19] 0.047 | [20] 0.027

Two consecutive records out of the list so far:
MTFR2 (UniProt Q6P444)
inactive: [1] 0.022 | [2] 0.1 | [3] 0.041 | [4] -0.086 | [5] 0.002 | [6] 0.013 | [7] 0.031 | [8] -0.007 | [9] 0.019 | [10] 0.109 | [11] 0.079 | [12] 0.116 | [13] 0.051 | [14] 0.003 | [15] -0.024 | [16] 0.039 | [17] 0.044 | [18] -0.264 | [19] 0.1 | [20] 0.03

MRPL39 isoform 2 (UniProt Q9NYK5)
inactive: [1] 0.003 | [2] -0.007 | [3] 0 | [4] -0.053 | [5] -0.007 | [6] 0.006 | [7] -0.021 | [8] 0.015 | [9] 0.02 | [10] -0.054 | [11] 0.042 | [12] -0.016 | [13] 0.021 | [14] 0.048 | [15] -0.041 | [16] -0.014 | [17] 0.167 | [18] -0.061 | [19] -0.025 | [20] 0.056

Next part

MRPL32 (UniProt Q9BYC8)
inactive: [1] 0.071 | [2] 0.038 | [3] -0.032 | [4] 0.003 | [5] -0.005 | [6] 0.006 | [7] -0.037 | [8] 0.06 | [9] 0.013 | [10] 0.016 | [11] 0.003 | [12] 0.008 | [13] -0.025 | [14] 0.112 | [15] 0.014 | [16] -0.018 | [17] 0.028 | [18] -0.029 | [19] 0.03 | [20] -0.082

MRPL48 (UniProt Q96GC5)
inactive: [1] -0.05 | [2] 0.052 | [3] 0.03 | [4] -0.019 | [5] 0.023 | [6] 0.035 | [7] -0.063 | [8] 0.022 | [9] 0.04 | [10] 0.017 | [11] -0.025 | [12] -0.003 | [13] -0.03 | [14] -0.039 | [15] -0.012 | [16] 0.009 | [17] -0.028 | [18] -0.179 | [19] 0.019 | [20] 0.006

MRPS18B (UniProt Q9Y676)
inactive: [1] 0.019 | [2] 0.057 | [3] -0.041 | [4] -0.117 | [5] 0.085 | [6] -0.047 | [7] -0.061 | [8] 0.051 | [9] 0.077 | [10] -0.031 | [11] 0.084 | [12] 0.05 | [13] 0.055 | [14] 0.02 | [15] -0.007 | [16] -0.15 | [17] 0.004 | [18] -0.071 | [19] 0.093 | [20] -0.13

MUC1, A0A087WWM1
inactive: [1] -0.075 | [2] 0.006 | [3] 0.002 | [4] -0.006 | [5] -0.075 | [6] 0.089 | [7] 0.084 | [8] 0.063 | [9] 0.019 | [10] -0.037 | [11] 0.067 | [12] 0.038 | [13] -0.013 | [14] 0.015 | [15] 0.033 | [16] -0.031 | [17] -0.004 | [18] -0.029 | [19] 0.115 | [20] 0.063

MRPS12 (UniProt O15235)
inactive: [1] -0.003 | [2] -0.008 | [3] 0.011 | [4] -0.067 | [5] 0.007 | [6] -0.004 | [7] -0.138 | [8] 0.003 | [9] -0.028 | [10] -0.02 | [11] 0.062 | [12] 0.035 | [13] 0.003 | [14] 0.045 | [15] 0.011 | [16] 0.001 | [17] -0.038 | [18] 0.001 | [19] 0.016 | [20] 0.028

MRPS9 (UniProt P82933)
inactive: [1] 0.041 | [2] -0.03 | [3] -0.01 | [4] 0.015 | [5] 0.042 | [6] 0.009 | [7] -0.062 | [8] -0.007 | [9] 0.039 | [10] 0.034 | [11] 0.014 | [12] -0.006 | [13] 0.044 | [14] -0.029 | [15] -0.031 | [16] 0.019 | [17] -0.076 | [18] 0.036 | [19] 0.008 | [20] 0.027

MRPL52 (UniProt Q86TS9)
inactive: [1] 0.182 | [2] -0.048 | [3] 0.006 | [4] -0.001 | [5] -0.073 | [6] 0.078 | [7] -0.014 | [8] -0.013 | [9] -0.056 | [10] -0.034 | [11] -0.133 | [12] 0.041 | [13] 0.016 | [14] 0.074 | [15] -0.037 | [16] -0.047 | [17] -0.064 | [18] 0.131 | [19] 0 | [20] -0.106

MSMO1 (UniProt Q15800)
inactive: [1] -0.049 | [2] -0.004 | [3] -0.051 | [4] -0.035 | [5] 0.04 | [6] -0.032 | [7] -0.024 | [8] 0.004 | [9] 0 | [10] -0.015 | [11] 0.031 | [12] 0 | [13] -0.079 | [14] 0.059 | [15] 0.022 | [16] -0.038 | [17] -0.063 | [18] 0.069 | [19] -0.003 | [20] 0.027

MRPS18C (UniProt Q9Y3D5)
inactive: [1] 0.041 | [2] 0.058 | [3] 0.028 | [4] -0.007 | [5] 0.011 | [6] -0.001 | [7] 0.027 | [8] -0.005 | [9] -0.041 | [10] -0.072 | [11] -0.003 | [12] -0.011 | [13] 0.045 | [14] -0.058 | [15] 0.034 | [16] 0.008 | [17] -0.097 | [18] 0.031 | [19] 0.082 | [20] 0

MTIF2 (UniProt P46199)
inactive: [1] -0.008 | [2] 0.01 | [3] 0.027 | [4] -0.012 | [5] 0.017 | [6] -0.009 | [7] -0.026 | [8] 0.015 | [9] 0.041 | [10] -0.016 | [11] 0.025 | [12] 0.025 | [13] 0.048 | [14] -0.005 | [15] -0.055 | [16] -0.008 | [17] 0.046 | [18] -0.135 | [19] 0.03 | [20] -0.001

MRPL58 (UniProt Q14197)
inactive: [1] 0.025 | [2] 0.032 | [3] -0.022 | [4] 0.006 | [5] -0.013 | [6] 0.089 | [7] -0.034 | [8] -0.035 | [9] 0.032 | [10] 0.053 | [11] 0.104 | [12] -0.017 | [13] 0.033 | [14] -0.033 | [15] -0.043 | [16] 0.004 | [17] 0.148 | [18] -0.151 | [19] 0.04 | [20] 0.019

MRPS25 (UniProt P82663)
inactive: [1] -0.001 | [2] 0.07 | [3] -0.037 | [4] 0.038 | [5] 0.046 | [6] -0.071 | [7] -0.141 | [8] -0.015 | [9] 0.023 | [10] 0.065 | [11] -0.001 | [12] 0.141 | [13] 0.075 | [14] -0.093 | [15] 0.02 | [16] -0.002 | [17] 0.04 | [18] 0.026 | [19] -0.072 | [20] 0.015
